The source of these data is publication PMC7948964.

Amino acid sequences for entries named in this document (tags omitted).
UniProt O95714: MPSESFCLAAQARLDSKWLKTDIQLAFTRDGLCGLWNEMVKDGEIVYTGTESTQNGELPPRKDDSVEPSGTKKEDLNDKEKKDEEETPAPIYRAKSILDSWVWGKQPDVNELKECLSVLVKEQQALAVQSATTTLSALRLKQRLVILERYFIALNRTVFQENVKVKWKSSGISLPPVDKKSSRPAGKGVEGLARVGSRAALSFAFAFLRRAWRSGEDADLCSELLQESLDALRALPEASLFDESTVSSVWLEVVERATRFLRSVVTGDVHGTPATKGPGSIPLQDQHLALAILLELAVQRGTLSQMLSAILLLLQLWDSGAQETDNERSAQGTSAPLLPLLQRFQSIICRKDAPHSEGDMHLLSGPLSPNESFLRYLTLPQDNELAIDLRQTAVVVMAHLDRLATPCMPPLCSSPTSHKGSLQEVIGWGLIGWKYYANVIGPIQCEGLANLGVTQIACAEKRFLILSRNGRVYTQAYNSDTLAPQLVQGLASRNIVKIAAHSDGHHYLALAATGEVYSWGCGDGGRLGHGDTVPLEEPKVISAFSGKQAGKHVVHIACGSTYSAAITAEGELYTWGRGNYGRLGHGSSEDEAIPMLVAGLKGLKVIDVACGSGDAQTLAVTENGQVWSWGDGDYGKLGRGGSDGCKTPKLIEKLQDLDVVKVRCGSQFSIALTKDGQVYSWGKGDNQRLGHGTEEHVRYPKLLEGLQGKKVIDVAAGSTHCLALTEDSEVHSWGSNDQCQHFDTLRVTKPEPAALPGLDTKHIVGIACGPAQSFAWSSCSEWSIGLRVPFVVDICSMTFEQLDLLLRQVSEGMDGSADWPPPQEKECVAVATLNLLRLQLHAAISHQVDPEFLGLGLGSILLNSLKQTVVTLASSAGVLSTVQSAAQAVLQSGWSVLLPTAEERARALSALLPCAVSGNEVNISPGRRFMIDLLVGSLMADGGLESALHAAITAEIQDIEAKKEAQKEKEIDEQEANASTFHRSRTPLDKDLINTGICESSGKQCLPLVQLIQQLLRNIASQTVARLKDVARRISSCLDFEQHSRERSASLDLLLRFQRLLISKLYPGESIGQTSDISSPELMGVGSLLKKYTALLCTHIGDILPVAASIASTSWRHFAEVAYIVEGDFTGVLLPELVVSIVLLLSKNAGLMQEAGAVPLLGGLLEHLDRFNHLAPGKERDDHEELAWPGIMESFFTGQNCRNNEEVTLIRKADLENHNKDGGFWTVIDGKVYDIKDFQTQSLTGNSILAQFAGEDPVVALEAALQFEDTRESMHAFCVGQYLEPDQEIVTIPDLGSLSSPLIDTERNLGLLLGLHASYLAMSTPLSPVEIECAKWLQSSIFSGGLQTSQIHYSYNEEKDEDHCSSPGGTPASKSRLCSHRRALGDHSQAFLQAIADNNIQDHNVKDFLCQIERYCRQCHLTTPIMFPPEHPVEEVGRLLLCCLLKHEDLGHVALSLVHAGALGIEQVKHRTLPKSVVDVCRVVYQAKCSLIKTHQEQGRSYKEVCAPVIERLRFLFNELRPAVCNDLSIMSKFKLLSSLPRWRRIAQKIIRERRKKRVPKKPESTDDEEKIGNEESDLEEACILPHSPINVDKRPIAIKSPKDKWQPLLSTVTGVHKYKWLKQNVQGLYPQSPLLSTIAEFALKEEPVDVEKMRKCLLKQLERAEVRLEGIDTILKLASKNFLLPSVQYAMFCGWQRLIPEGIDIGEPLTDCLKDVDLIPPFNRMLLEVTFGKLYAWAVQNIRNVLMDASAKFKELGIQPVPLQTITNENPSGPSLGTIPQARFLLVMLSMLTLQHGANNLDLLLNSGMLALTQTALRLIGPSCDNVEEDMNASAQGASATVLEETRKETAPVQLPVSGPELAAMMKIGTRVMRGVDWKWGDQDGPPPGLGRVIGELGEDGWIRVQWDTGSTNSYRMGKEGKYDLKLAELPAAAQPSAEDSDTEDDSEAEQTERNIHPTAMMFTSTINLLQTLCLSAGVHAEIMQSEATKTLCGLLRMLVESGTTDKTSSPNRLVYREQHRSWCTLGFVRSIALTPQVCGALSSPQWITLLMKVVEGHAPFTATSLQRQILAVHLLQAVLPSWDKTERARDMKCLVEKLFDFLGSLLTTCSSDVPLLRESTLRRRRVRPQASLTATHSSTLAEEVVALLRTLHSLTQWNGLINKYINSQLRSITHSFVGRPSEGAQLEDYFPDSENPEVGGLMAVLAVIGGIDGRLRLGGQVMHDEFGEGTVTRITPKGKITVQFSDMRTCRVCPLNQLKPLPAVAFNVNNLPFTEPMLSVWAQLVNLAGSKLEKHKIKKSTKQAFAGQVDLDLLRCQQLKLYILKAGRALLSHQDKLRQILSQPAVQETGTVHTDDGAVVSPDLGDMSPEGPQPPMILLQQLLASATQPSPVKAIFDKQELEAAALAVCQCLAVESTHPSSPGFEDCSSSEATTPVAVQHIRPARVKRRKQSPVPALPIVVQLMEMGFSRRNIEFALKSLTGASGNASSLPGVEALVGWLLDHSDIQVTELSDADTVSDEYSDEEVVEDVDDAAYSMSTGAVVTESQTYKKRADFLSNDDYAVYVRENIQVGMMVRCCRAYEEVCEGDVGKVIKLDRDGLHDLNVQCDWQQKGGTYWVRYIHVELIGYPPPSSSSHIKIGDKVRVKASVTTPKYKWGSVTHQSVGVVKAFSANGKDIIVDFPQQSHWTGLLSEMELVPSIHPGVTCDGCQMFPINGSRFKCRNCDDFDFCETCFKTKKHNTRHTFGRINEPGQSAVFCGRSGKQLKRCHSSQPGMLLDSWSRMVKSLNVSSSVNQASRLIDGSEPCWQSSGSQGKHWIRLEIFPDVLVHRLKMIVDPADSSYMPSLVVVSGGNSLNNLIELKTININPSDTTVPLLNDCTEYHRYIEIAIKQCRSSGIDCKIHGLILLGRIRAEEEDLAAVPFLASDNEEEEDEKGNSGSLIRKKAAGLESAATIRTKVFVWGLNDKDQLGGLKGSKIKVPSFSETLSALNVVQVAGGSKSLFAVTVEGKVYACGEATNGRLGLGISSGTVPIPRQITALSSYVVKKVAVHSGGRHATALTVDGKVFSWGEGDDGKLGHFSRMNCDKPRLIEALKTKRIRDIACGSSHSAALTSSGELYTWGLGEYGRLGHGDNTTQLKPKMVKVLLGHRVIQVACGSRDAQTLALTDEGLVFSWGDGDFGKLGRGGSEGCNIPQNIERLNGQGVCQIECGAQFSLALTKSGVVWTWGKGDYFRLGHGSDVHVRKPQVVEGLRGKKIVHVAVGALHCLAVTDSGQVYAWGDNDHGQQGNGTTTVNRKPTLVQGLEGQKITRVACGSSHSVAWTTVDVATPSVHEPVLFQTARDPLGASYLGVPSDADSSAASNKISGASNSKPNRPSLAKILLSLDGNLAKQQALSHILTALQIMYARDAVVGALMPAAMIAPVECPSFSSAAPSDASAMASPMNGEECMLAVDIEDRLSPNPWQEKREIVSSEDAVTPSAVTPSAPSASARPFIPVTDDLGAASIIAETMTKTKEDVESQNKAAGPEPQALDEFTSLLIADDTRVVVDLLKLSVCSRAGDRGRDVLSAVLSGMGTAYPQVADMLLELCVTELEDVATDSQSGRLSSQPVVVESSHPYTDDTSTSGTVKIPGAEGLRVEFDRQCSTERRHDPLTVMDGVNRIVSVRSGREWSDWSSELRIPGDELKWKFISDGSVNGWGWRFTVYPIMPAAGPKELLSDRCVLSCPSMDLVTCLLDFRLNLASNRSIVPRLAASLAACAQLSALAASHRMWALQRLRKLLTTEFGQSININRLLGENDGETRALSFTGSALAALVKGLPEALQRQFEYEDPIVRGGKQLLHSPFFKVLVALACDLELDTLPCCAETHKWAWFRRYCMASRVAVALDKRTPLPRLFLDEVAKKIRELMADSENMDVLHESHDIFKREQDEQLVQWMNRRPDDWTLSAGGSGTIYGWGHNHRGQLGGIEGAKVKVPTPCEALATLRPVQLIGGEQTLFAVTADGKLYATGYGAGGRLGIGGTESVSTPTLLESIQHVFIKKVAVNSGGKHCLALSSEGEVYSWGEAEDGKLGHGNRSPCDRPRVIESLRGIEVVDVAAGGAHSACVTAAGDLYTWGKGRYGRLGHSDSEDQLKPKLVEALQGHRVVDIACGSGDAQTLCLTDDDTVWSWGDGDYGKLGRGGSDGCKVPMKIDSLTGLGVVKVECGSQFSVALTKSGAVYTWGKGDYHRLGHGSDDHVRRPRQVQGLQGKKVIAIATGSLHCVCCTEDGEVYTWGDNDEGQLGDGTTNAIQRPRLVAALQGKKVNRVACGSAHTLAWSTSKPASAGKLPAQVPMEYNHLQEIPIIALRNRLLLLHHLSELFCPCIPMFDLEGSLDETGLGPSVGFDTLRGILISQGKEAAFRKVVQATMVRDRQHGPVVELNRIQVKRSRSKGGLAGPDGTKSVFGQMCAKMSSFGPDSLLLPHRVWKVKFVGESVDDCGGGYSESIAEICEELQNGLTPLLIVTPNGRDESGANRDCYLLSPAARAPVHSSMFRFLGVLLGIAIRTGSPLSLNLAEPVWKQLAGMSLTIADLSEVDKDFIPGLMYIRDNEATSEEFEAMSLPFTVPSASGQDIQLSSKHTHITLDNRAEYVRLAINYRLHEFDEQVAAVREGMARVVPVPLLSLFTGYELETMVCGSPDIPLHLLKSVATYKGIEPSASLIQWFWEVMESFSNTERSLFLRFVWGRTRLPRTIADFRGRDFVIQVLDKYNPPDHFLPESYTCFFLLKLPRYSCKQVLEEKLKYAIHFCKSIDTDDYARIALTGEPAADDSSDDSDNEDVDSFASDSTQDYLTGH

Experiment [1] concerns the target endogenous HECTD1 (human (endogenous in HEK293ET)) (UniProt Q9ULT8). Nature of the experiment: co-IP; antibodies to endogenous HECT ligases (4 μg) coupled to Dynabeads protein G; lysates of HEK293ET/HEK293T cells expressing 3xFLAG TRABID constructs; 1 h at RT; four washes in Triton Lysis Buffer; anti-FLAG blot.
The target in experiment [2] is T1, GST-TRABID NZF 1 to 3 (AA1-200) (human) (UniProt Q9UGI0).
T1 sequence: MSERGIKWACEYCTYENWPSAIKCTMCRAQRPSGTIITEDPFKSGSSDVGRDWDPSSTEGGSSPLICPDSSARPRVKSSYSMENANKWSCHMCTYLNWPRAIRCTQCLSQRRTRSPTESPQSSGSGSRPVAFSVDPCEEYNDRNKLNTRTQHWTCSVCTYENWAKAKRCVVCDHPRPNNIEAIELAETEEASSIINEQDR
The experiment in a line: pull-down; 20 μg GST protein on glutathione magnetic agarose beads; cleared HEK293T lysate, 2 h at RT in pull-down buffer (150 mM NaCl, 25 mM Tris pH 7.4, 5 mM DTT, 0.1% NP-40) with BSA 0.5 mg/ml; five washes; only the target purified.

In experiment [3] the target is endogenous HERC2 (human (endogenous in HEK293ET)) (UniProt O95714). The experiment in a line: co-IP; antibodies to endogenous HECT ligases (4 μg) coupled to Dynabeads protein G; lysates of HEK293ET/HEK293T cells expressing 3xFLAG TRABID constructs; 1 h at RT; four washes in Triton Lysis Buffer; anti-FLAG blot.

Results are given in words; binding and its absence hold for the method and conditions named. Binding seen in cells or lysates may run through a third protein. Some binding calls cover weakened binding; strength is not graded here. For part of these data: Where a sequence is shown, tags or fusion partners need not be part of it.

On to “endogenous HERC2 (from UniProt O95714 1-4834) (enzyme)”, for which the figures for the binding result in experiment [1] and in experiment [2] were “no binding” and “binds weakly”, respectively.

B1: 3xFLAG_TRABID ΔOTU (TRABID 1-339) (domain or fragment, UniProt Q9UGI0 1-339)
chain: MSERGIKWACEYCTYENWPSAIKCTMCRAQRPSGTIITEDPFKSGSSDVGRDWDPSSTEGGSSPLICPDSSARPRVKSSYSMENANKWSCHMCTYLNWPRAIRCTQCLSQRRTRSPTESPQSSGSGSRPVAFSVDPCEEYNDRNKLNTRTQHWTCSVCTYENWAKAKRCVVCDHPRPNNIEAIELAETEEASSIINEQDRARWRGSCSSGNSQRRSPPATKRDSEVKMDFQRIELAGAVGSKEELEVDFKKLKQIKNRMKKTDWLFLNACVGVVEGDLAAIEAYKSSGGDIARQLTADEVRLLNRPSAFDVGYTLVHLAIRFQRQDMLAILLTEVSQQA
For the molecule B1, the binding entry in experiment [3] is “binds weakly”.
